# Assay results from the supplement of paper PMC11348887.
# This is one part of the list. Most values lie at the level of the controls, where differences are scatter.
# Columns and labels:
# Details in all cases: 5 µM; treatment: days 7-14 after plating, readout day 21
# [1] = tested on: hPSC-derived cortical neurons (WA09); test: nucleus area z-score vs screen plate; higher = larger nuclei (more mature)
# [2] = tested on: hPSC-derived cortical neurons (WA09); test: total neurite length per nucleus (MAP2) z-score; higher = more neurite growth
# [3] = tested on: hPSC-derived cortical neurons (WA09); test: nucleus roundness z-score vs screen plate; higher = rounder nuclei (more mature)
# [4] = tested on: hPSC-derived cortical neurons (WA09); test: KCl-induced FOS+/EGR-1+ double-positive nuclei fraction z-score (KCl minus unstimulated); higher = stronger activity-induced IEG response
SMILES,nucleus area z-score [1],total neurite length per nucleus (z-score) [2],nucleus roundness z-score [3],KCl-induced FOS+/EGR-1+ double-positive nuclei fraction z-score [4]
O=C(O)c1cccnc1 [Nicotinic Acid],-0.00934,0.433,-0.0582,1.43
Cc1c(Nc2ncccc2C(=O)O)cccc1C(F)(F)F [Flunixin Meglumin],-0.313,0.00361,0.349,-0.88
CNC(=C[N+](=O)[O-])NCCSCc1csc(CN(C)C)n1 [Nizatidine],-0.48,0.511,0.201,0.925
CCNc1nc(Nc2cc(F)c(C(=O)N3CCOCC3)cc2OC)ncc1C(F)(F)F,1.63,1.45,1.42,3.01
Cc1[nH]nc2ccc(-c3cncc(OC[C@@H](N)Cc4ccccc4)c3)cc12,-11.7,-5.82,-3.08,-1.68
COc1cc2ncnc(Nc3cccc(Cl)c3F)c2cc1OC(=O)N1CCN(C)C[C@H]1C,0.0424,1.11,1.16,0.375
C[C@@H](Oc1ccc2[nH]nc(/C=C/c3cnn(CCO)c3)c2c1)c1c(Cl)cncc1Cl,0.402,1.21,-0.261,-0.289
C[N+]1(C)[C@@H]2CC[C@H]1C[C@@H](OC(=O)C(O)c1ccccc1)C2 (stereo not given in full) [Homatropine Methylbromide],-0.0318,0.244,0.978,-2.33
Cn1cnc(N)c2ncnc1-2 [3-Methyladenine],0.0104,1.75,0.341,0.628
C[C@H](CCC(=O)NCCS(=O)(=O)O)[C@H]1CC[C@H]2[C@@H]3[C@@H](O)C[C@@H]4C[C@H](O)CC[C@]4(C)[C@H]3CC[C@]12C [Sodium Tauroursodeoxycholate (TUDC)],1.97,1.15,0.632,1.18
